We go through one molecule from paper PMC11890758.

Chains of the proteins cited; added tags and fusions are not shown.
UniProt Q13490: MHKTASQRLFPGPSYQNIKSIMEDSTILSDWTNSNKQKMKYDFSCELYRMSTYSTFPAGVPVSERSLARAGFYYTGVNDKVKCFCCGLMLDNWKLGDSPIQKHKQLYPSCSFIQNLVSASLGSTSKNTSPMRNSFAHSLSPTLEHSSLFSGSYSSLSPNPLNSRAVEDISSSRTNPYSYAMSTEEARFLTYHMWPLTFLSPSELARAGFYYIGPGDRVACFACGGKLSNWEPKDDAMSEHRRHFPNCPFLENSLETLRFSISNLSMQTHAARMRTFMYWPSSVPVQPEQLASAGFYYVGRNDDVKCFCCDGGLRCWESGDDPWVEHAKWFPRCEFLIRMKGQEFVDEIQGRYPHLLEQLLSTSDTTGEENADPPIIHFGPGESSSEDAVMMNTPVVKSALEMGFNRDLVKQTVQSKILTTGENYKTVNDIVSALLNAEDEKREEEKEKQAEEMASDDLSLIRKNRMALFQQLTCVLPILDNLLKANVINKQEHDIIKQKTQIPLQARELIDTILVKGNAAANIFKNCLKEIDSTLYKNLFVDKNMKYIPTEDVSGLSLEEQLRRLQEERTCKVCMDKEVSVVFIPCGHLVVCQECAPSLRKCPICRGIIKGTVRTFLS

Results are given in words; binding and its absence hold for the method and conditions named. In cells and extracts the contact can be indirect. Some binding calls cover weakened binding; strength is not graded here. Sequences can lack the tags named with a protein.

The experiment has as its target GST-cIAP1 (human) (UniProt Q13490). The experiment is described as follows: pull-down; GST pull-down from lysate of HEK293T cells co-expressing a GST-tagged and a Venus-Flag-tagged protein; 1% NP-40 lysis buffer (20 mM Tris-HCl, 150 mM NaCl, 5% glycerol, 2 mM EDTA), glutathione sepharose beads, 4 C for 2 h, immunoblot; cells serum-starved overnight for Fig. 1H. For orientation: A western blot detects proteins with antibodies after separation by electrophoresis.

B1: Venus-Flag-tagged LKB1 kinase domain C-lobe truncation (CL) (domain or fragment, UniProt Q15831 132-347)
chain: CVCGMQEMLDSVPEKRFPVCQAHGYFCQLIDGLEYLHSQGIVHKDIKPGNLLLTTGGTLKISDLGVAEALHPFAADDTCRTSQGSPAFQPPEIANGLDTFSGFKVDIWSAGVTLYNITTGLYPFEGDNIYKLFENIGKGSYAIPGDCGPPLSDLLKGMLEYEPAKRFSIRQIRQHSWFRKKHPPAEAPVPIPPSPDTKDRWRSMTVVPYLEDLHGA
As to B1, the binding entry is given as “binds”.
